# Values of other authors in patent publication US6143325A, “Nefazodone dosage form” (priority 1999, dated 2000).
# Details: hydrophilic matrix extended-release formulation, relative to fasted state; cited from earlier work
structure (smiles),measurement,value
COC(=O)C1=C(C)NC(C)=C(C(=O)OC)C1c1ccccc1[N+](=O)[O-] [nifedipine],increase of area under the curve (AUC) in the fed state,75%
